Measurements: patent publication US11360104
Construct, isoform or probe ends are uncertain for at least one entry. A negative result means that nothing was seen under these conditions. Where a protein sequence is shown, tags need not be part of it.

Tested on: T1, PinR (AIY20223.2, TetR family) (Pimelobacter simplex)
T1 sequence: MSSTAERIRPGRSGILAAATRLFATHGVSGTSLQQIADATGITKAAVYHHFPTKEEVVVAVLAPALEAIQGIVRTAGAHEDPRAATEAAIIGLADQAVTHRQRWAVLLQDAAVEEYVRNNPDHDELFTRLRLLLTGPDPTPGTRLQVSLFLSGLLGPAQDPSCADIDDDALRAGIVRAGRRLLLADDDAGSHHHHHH
Assay: binding assay
Details: FRET; scrambled control; QD/TF/DNA 1/4/18; purified recombinant protein; label: Cy5 at 5' and 3'

Question: Does “TGTGCGTGTCCCTCGCTCGGTTTCAGA / TCGTGAAACCGAGCGAGGGACACGCACA [scrambled (scbd)]” bind?
Answer: no binding
